Part of at least one peptide drawing is inferred or uncertain, most often the ends. Residues, ends and D or L forms follow the SMILES beside them.
Target: T1, purified rat kidney enkephalinase (Rattus norvegicus, UniProt P07861)
T1 construct: Rat kidney enkephalinase was purified to apparent homogeneity; from tissue; host or cells: rat kidney (male rats, membrane fraction, Triton X-100 solubilised)
T1 sequence (P07861 1-750): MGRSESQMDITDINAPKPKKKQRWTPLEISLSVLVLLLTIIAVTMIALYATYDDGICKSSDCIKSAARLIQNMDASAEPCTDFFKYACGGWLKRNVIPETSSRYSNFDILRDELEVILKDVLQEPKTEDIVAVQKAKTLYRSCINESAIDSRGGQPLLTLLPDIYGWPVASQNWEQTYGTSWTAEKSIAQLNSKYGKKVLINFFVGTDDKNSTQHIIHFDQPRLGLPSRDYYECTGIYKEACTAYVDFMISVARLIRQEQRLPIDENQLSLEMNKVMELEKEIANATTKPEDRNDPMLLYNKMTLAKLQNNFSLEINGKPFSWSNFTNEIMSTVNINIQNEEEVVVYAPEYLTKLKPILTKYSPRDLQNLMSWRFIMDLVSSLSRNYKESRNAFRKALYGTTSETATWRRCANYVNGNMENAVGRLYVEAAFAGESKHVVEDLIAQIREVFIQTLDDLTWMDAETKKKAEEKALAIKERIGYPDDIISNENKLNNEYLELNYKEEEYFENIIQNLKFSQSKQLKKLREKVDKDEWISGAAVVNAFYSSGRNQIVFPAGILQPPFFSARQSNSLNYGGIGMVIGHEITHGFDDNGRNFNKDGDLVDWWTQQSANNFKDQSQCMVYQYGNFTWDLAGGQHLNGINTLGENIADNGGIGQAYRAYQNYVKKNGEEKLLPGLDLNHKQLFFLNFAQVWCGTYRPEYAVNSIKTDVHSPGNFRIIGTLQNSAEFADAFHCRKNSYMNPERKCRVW
Assay: HPLC analysis of the hydrolysis of peptides by enkephalinase, without and with thiorphan
Type: biochemical
Conditions: compared with the two N-terminally substituted tripeptides; 1 mM, 1 hr at 37° C.

NCC(=O)N[C@@H](Cc1c[nH]c2ccccc12)C(=O)NCC(=O)O [Substrate I, Gly-Trp-Gly] (H-Gly-Trp-Gly-OH)
rate of hydrolysis at the Gly-Trp amide bond: much lower rate
